# Some of the results follow.
# Tests used:
# Experiment in all cases: glycan array binding signal (z-score within array); higher = stronger binding
# Conditions in all cases: glycan notation: IUPAC condensed, linker removed
# [1] = biological target: Man(a1-3)[Man(a1-6)]Man(a1-6)[Man(a1-3)]Man
# In short: (§1)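 Columns mapping to the same glycan were averaged after glycan names were converted to IUPAC-condensed notation. The data come from 3228 arrays in the Consortium for Functional Glycomics database, limited to those with an available protein sequence. Binding is reported as a within-array Z-score averaged across arrays of one protein sequence and across linkers.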
# [2] = biological target: Man(a1-3)[Man(a1-6)]Man(a1-6)[Man(a1-3)]Man(b1-4)GlcNAc(b1-4)GlcNAc
# In short: as §1
# [3] = biological target: Man(a1-3)[Man(a1-6)]Man(b1-4)GlcNAc(b1-4)GlcNAc
# In short: as §1
# [4] = biological target: Man(a1-3)[Man(a1-6)]Man(b1-4)GlcNAc(b1-4)[Fuc(a1-6)]GlcNAc
# In short: as §1
# [5] = biological target: Man(a1-6)Man
# In short: as §1
# [6] = biological target: Man(b1-4)GlcNAc
# In short: as §1
# [7] = biological target: MurNAc(b1-4)GlcNAc
# In short: as §1
# [8] = biological target: Neu5Ac(a2-3)Gal
# In short: as §1
# [9] = biological target: Neu5Ac(a2-3)Gal(b1-3)GalNAc
# In short: as §1
# [10] = biological target: Neu5Ac(a2-3)Gal(b1-3)GalNAc(b1-3)Gal(a1-4)Gal(b1-4)Glc
# In short: as §1
# [11] = biological target: Neu5Ac(a2-3)Gal(b1-3)GalNAc(b1-4)[Neu5Ac(a2-3)]Gal(b1-4)Glc
# In short: as §1
# [12] = biological target: Neu5Ac(a2-3)Gal(b1-3)GalNAc(b1-4)[Neu5Ac(a2-8)Neu5Ac(a2-3)]Gal(b1-4)Glc
# In short: as §1
# [13] = biological target: Neu5Ac(a2-3)Gal(b1-3)GalNAc6S
# In short: as §1
# [14] = biological target: Neu5Ac(a2-3)Gal(b1-3)GlcNAc
# In short: as §1
# [15] = biological target: Neu5Ac(a2-3)Gal(b1-3)GlcNAc(b1-2)Man
# In short: as §1
# [16] = biological target: Neu5Ac(a2-3)Gal(b1-3)GlcNAc(b1-2)Man(a1-3)[GlcNAc(b1-4)][Neu5Ac(a2-3)Gal(b1-3)GlcNAc(b1-2)Man(a1-6)]Man(b1-4)GlcNAc(b1-4)GlcNAc
# In short: as §1
# [17] = biological target: Neu5Ac(a2-3)Gal(b1-3)GlcNAc(b1-2)Man(a1-3)[Neu5Ac(a2-3)Gal(b1-3)GlcNAc(b1-2)Man(a1-6)]Man(b1-4)GlcNAc(b1-4)GlcNAc
# In short: as §1
# [18] = biological target: Neu5Ac(a2-3)Gal(b1-3)GlcNAc(b1-3)Gal(b1-3)GlcNAc
# In short: as §1
# [19] = biological target: Neu5Ac(a2-3)Gal(b1-3)GlcNAc(b1-3)Gal(b1-4)GlcNAc
# In short: as §1
# [20] = biological target: Neu5Ac(a2-3)Gal(b1-3)GlcNAc(b1-3)GalNAc
# In short: as §1
# [21] = biological target: Neu5Ac(a2-3)Gal(b1-3)GlcNAc(b1-4)Gal(b1-4)Glc
# In short: as §1
# [22] = biological target: Neu5Ac(a2-3)Gal(b1-3)GlcNAc(b1-6)GalNAc
# In short: as §1
# [23] = biological target: Neu5Ac(a2-3)Gal(b1-3)GlcNAc6S
# In short: as §1
# [24] = biological target: Neu5Ac(a2-3)Gal(b1-3)[Fuc(a1-4)]GlcNAc
# In short: as §1
# [25] = biological target: Neu5Ac(a2-3)Gal(b1-3)[Fuc(a1-4)]GlcNAc(b1-3)Gal(b1-3)[Fuc(a1-4)]GlcNAc
# In short: as §1
# [26] = biological target: Neu5Ac(a2-3)Gal(b1-3)[Fuc(a1-4)]GlcNAc(b1-3)Gal(b1-4)[Fuc(a1-3)]GlcNAc
# In short: as §1
# [27] = biological target: Neu5Ac(a2-3)Gal(b1-3)[GlcNAc(b1-6)]GalNAc
# In short: as §1
# [28] = biological target: Neu5Ac(a2-3)Gal(b1-3)[Neu5Ac(a2-6)]GalNAc
# In short: as §1
# [29] = biological target: Neu5Ac(a2-3)Gal(b1-3)[Neu5Ac(a2-6)]GlcNAc(b1-3)[Fuc(a1-3)[Gal(b1-4)]GlcNAc(b1-6)]Gal(b1-4)Glc
# In short: as §1
# [30] = biological target: Neu5Ac(a2-3)Gal(b1-3)]Neu5Ac(a2-3)Gal(b1-4)]GlcNAc
# In short: as §1
# [31] = biological target: Neu5Ac(a2-3)Gal(b1-4)Glc
# In short: as §1
# [32] = biological target: Neu5Ac(a2-3)Gal(b1-4)GlcNAc
# In short: as §1
# [33] = biological target: Neu5Ac(a2-3)Gal(b1-4)GlcNAc(b1-2)Man
# In short: as §1
# [34] = biological target: Neu5Ac(a2-3)Gal(b1-4)GlcNAc(b1-2)Man(a1-3)[GlcNAc(b1-4)][Neu5Ac(a2-3)Gal(b1-4)GlcNAc(b1-2)Man(a1-6)]Man(b1-4)GlcNAc(b1-4)GlcNAc
# In short: as §1
# [35] = biological target: Neu5Ac(a2-3)Gal(b1-4)GlcNAc(b1-2)Man(a1-3)[Neu5Ac(a2-3)Gal(b1-4)GlcNAc(b1-2)Man(a1-6)]Man(b1-4)GlcNAc(b1-4)GlcNAc
# In short: as §1
# [36] = biological target: Neu5Ac(a2-3)Gal(b1-4)GlcNAc(b1-2)Man(a1-3)[Neu5Ac(a2-3)Gal(b1-4)GlcNAc(b1-2)Man(a1-6)]Man(b1-4)GlcNAc(b1-4)[Fuc(a1-6)]GlcNAc
# In short: as §1
# [37] = biological target: Neu5Ac(a2-3)Gal(b1-4)GlcNAc(b1-2)Man(a1-3)[Neu5Ac(a2-6)Gal(b1-4)GlcNAc(b1-2)Man(a1-6)]Man(b1-4)GlcNAc(b1-4)GlcNAc
# In short: as §1
# [38] = biological target: Neu5Ac(a2-3)Gal(b1-4)GlcNAc(b1-2)[Neu5Ac(a2-3)Gal(b1-4)GlcNAc(b1-4)]Man(a1-3)[GlcNAc(b1-4)][Neu5Ac(a2-3)Gal(b1-4)GlcNAc(b1-2)[Neu5Ac(a2-3)Gal(b1-4)GlcNAc(b1-6)]Man(a1-6)]Man(b1-4)GlcNAc(b1-4)GlcNAc
# In short: as §1
binder,measurement,setting,value
PX9961Q-bfa-504-27-504 (Bacteroides fragilis) (protein) NDWLDRKPADGIPSEDAITNYNDALTARTGMYDGIQGNSNATSYYGARMFYYGDVRADDMQARTQGMRSSSCYEMLYTVDDAPNMWNIPYNVIRRANRLIEAINEKKVTDATEAQIGKIYSEALVVRALVHFDLVRIYGMPYTADNGASLGVPVIVKPLERNDLPSRNTVAEVYTQVITDLTDAINSGYLAKDQTPGYINEWAAKALLTRVYLTKGDNENALKVAEDIITNSPYKLWTNEEYVNAWYKSNGAHTNEMIFEVVNASNDDWTDRNGIAYLLNENGYADAIVTKSFMNMLSQDPKDVRIGMVLPAQYDKDLQEEYGDAKIFINKFPADKDDVGEMRLNNLPLLRLSEVYLSAAEAAAKLGGHQDKAAKYLNEIVQRANPEAKAISEADATVERIILERRKEMIGEGQRYFDALRNNETIVRYKDEGDKGYHYSLIKESQSFDRTYFRAILPIPVDETNVNPNLRAQQNPGY,glycan array binding signal (z-score),[1],0.661
same,glycan array binding signal (z-score),[2],0.933
same,glycan array binding signal (z-score),[3],-0.057
same,glycan array binding signal (z-score),[4],-0.197
same,glycan array binding signal (z-score),[5],-0.352
same,glycan array binding signal (z-score),[6],1.19
same,glycan array binding signal (z-score),[7],-0.265
same,glycan array binding signal (z-score),[8],-0.059
same,glycan array binding signal (z-score),[9],-0.722
same,glycan array binding signal (z-score),[10],-0.286
same,glycan array binding signal (z-score),[11],-0.636
same,glycan array binding signal (z-score),[12],-0.412
same,glycan array binding signal (z-score),[13],-0.665
same,glycan array binding signal (z-score),[14],-0.213
same,glycan array binding signal (z-score),[15],-0.633
same,glycan array binding signal (z-score),[16],-0.652
same,glycan array binding signal (z-score),[17],-0.686
same,glycan array binding signal (z-score),[18],-0.939
same,glycan array binding signal (z-score),[19],0.081
same,glycan array binding signal (z-score),[20],0.193
same,glycan array binding signal (z-score),[21],-0.577
same,glycan array binding signal (z-score),[22],-0.896
same,glycan array binding signal (z-score),[23],1.4
same,glycan array binding signal (z-score),[24],0.453
same,glycan array binding signal (z-score),[25],0.339
same,glycan array binding signal (z-score),[26],-0.611
same,glycan array binding signal (z-score),[27],-0.315
same,glycan array binding signal (z-score),[28],-0.652
same,glycan array binding signal (z-score),[29],-1.12
same,glycan array binding signal (z-score),[30],-0.275
same,glycan array binding signal (z-score),[31],-0.356
same,glycan array binding signal (z-score),[32],-0.47
same,glycan array binding signal (z-score),[33],-0.285
same,glycan array binding signal (z-score),[34],-0.384
same,glycan array binding signal (z-score),[35],-0.533
same,glycan array binding signal (z-score),[36],-0.812
same,glycan array binding signal (z-score),[37],-0.28
same,glycan array binding signal (z-score),[38],-0.47

# Copied from above for reference:
binder,measurement,setting,value
PX9961Q-bfa-504-27-504 (Bacteroides fragilis) (protein) NDWLDRKPADGIPSEDAITNYNDALTARTGMYDGIQGNSNATSYYGARMFYYGDVRADDMQARTQGMRSSSCYEMLYTVDDAPNMWNIPYNVIRRANRLIEAINEKKVTDATEAQIGKIYSEALVVRALVHFDLVRIYGMPYTADNGASLGVPVIVKPLERNDLPSRNTVAEVYTQVITDLTDAINSGYLAKDQTPGYINEWAAKALLTRVYLTKGDNENALKVAEDIITNSPYKLWTNEEYVNAWYKSNGAHTNEMIFEVVNASNDDWTDRNGIAYLLNENGYADAIVTKSFMNMLSQDPKDVRIGMVLPAQYDKDLQEEYGDAKIFINKFPADKDDVGEMRLNNLPLLRLSEVYLSAAEAAAKLGGHQDKAAKYLNEIVQRANPEAKAISEADATVERIILERRKEMIGEGQRYFDALRNNETIVRYKDEGDKGYHYSLIKESQSFDRTYFRAILPIPVDETNVNPNLRAQQNPGY,glycan array binding signal (z-score),[20],0.193
same,glycan array binding signal (z-score),[21],-0.577
